# Assay results: patent US20240327454A1, “DETERGENT AND METHOD FOR PURIFYING A BIOTHERAPEUTIC” (MEDIMMUNE, LLC, priority 2020, published 2024)
# Some of these results come from one statement about several compounds together.
# Test system: XMuLV
# Assay: Viral inactivation by 1% detergent in XMuLV-spiked BisAb cell harvest media, plaque assay (Example 1)
# Assay type: cell-based, murine xenotropic leukemia virus-related virus
# Conditions: <1 min, listed as Polidocanol 600
# Source text: The viral inactivation of four detergents was examined using a CHO-derived cell harvest material for a monovalent bispecific human IgG1 monoclonal antibody. Brij L9 (Laureth-9), Myrj S25, and Brij S20 were sourced from Croda International Plc. (East Yorkshire, United Kingdom). Polidocanol 600 (Laureth-9) was sourced from Schärer & Schläpfer AG (Rothrist, Switzerland).
# Harvest media was spiked with murine xenotropic leukemia virus-related virus (XMuLV) stock prior to the detergent spike.
# Conditioned cell harvest media containing a monovalent bispecific human IgG1 monoclonal antibody (BisAb) was spiked with 8.5 logs of XMuLV. A sample of the virus spiked harvest media was collected and used as a hold control to determine the rate of viral inactivation without detergent.
# A 10% (w/w) stock solution was made by dissolving detergent into 50 mM Tris pH 7.4. A cell harvest sample of BisAb media spiked with XMuLV was spiked to a 1% detergent concentration using an appropriate amount of the 10% stock solution. The hold control and reaction samples were incubated at room temperature. Samples were collected at 1, 10, 60, and 120 minutes and diluted 1:50 in McCoy medium to stop the viral inactivation reaction. Diluted samples and hold control were assayed for viral concentration using a plaque assay.
smiles,measurement,value
"CCCCCCCCCCCCOCCOCCOCCOCCOCCOCCOCCOCCOCCO [Polidodecanol 600, 3,6,9,12,15,18,21,24,27-nonaoxanonatriacontan-1-ol]",Log10 reduction value,greater than 4 Log10
